NP40-soluble protein abundance data for twelve targets are collected here from the supplement of paper PMC6411743.

The chains behind the UniProt entries cited, without tags or fusion partners. Where a name states a change or a piece, a line headed by the entry shows the natural chain unless it says otherwise.
UniProt Q96KQ7: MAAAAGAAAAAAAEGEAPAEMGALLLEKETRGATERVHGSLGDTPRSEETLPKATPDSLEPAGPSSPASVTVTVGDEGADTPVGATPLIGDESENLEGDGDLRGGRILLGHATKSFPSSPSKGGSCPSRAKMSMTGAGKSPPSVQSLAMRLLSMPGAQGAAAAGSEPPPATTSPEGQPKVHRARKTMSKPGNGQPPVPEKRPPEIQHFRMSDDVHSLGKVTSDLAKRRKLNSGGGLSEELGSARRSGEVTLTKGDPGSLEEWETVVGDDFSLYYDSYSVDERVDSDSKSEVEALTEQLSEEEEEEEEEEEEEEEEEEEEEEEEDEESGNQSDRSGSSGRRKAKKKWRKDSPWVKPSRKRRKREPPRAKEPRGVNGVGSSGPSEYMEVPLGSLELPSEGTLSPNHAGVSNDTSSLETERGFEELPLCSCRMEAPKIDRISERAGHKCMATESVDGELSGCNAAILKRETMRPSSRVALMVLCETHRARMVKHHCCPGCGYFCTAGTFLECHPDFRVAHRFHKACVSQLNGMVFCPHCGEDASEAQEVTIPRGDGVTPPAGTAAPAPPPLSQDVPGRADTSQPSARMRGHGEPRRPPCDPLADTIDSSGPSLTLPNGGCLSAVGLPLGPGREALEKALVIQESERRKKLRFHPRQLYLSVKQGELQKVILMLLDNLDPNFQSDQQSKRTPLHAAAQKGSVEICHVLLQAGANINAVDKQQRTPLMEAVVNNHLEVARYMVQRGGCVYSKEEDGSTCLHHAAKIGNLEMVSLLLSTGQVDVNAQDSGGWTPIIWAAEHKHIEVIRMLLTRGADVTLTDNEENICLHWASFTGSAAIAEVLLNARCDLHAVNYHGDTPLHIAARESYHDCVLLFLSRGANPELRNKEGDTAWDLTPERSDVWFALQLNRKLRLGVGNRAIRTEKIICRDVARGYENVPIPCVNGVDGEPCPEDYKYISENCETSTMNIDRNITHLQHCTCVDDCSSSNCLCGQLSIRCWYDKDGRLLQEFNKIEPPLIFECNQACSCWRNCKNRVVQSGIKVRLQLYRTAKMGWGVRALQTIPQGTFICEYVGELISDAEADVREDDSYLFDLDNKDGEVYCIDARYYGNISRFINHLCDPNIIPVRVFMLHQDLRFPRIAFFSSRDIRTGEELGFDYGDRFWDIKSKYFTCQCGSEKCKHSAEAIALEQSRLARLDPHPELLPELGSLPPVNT
UniProt Q99550: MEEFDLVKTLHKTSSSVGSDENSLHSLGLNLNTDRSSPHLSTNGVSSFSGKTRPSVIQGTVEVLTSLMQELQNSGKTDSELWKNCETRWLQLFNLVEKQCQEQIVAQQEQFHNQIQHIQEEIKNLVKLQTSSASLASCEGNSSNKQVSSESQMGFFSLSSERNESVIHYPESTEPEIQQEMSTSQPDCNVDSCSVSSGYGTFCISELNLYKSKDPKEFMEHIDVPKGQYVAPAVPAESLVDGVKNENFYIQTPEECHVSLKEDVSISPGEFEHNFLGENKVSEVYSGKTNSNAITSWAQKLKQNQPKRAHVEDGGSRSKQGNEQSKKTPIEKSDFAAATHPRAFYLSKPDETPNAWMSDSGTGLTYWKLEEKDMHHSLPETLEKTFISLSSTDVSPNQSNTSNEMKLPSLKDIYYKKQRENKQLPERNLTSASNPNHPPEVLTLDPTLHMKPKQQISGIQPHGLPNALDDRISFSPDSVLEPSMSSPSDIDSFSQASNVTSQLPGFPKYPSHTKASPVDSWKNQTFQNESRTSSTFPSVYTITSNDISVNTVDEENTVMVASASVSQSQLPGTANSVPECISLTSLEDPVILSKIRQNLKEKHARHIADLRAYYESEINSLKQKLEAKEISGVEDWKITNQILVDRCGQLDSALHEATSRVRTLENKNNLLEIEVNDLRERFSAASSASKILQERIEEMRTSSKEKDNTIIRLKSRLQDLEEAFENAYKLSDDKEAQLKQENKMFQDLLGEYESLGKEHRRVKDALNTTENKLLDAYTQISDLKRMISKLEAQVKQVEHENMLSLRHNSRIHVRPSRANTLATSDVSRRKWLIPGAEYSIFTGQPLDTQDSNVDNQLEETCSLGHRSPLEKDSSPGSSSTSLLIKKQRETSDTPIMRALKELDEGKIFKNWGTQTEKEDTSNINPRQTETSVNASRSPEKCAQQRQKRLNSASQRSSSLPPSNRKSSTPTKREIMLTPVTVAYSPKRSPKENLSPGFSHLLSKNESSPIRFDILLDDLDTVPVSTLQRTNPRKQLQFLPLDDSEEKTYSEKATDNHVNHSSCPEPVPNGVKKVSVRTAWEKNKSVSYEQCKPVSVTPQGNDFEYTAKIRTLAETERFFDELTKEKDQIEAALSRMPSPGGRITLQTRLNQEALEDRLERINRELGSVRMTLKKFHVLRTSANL
UniProt O95218: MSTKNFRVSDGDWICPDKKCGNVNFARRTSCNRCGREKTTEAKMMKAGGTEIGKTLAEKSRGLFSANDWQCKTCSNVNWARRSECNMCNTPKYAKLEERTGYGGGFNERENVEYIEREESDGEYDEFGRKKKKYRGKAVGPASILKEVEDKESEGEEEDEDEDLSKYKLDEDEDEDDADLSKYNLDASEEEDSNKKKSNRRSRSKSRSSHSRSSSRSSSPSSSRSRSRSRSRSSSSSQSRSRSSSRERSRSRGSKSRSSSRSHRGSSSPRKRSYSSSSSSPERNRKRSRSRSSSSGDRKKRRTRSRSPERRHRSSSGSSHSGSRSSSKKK
UniProt Q9NZ52: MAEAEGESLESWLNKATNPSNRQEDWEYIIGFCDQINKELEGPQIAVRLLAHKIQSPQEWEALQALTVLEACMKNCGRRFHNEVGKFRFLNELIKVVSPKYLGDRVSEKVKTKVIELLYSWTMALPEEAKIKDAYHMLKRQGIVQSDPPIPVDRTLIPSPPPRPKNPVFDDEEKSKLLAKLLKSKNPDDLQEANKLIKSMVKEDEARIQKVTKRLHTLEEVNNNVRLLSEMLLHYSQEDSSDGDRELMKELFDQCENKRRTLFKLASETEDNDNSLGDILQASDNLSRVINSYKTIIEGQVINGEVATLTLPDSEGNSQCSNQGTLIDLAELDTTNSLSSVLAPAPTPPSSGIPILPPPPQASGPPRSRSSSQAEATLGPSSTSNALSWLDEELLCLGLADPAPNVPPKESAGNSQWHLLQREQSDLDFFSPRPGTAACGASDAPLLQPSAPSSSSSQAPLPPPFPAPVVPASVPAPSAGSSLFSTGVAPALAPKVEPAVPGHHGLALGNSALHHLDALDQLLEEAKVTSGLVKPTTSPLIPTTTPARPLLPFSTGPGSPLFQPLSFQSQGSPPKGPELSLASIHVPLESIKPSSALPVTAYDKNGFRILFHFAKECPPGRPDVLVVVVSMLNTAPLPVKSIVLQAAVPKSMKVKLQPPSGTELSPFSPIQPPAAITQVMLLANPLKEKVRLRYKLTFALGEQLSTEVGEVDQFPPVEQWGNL
UniProt P54252: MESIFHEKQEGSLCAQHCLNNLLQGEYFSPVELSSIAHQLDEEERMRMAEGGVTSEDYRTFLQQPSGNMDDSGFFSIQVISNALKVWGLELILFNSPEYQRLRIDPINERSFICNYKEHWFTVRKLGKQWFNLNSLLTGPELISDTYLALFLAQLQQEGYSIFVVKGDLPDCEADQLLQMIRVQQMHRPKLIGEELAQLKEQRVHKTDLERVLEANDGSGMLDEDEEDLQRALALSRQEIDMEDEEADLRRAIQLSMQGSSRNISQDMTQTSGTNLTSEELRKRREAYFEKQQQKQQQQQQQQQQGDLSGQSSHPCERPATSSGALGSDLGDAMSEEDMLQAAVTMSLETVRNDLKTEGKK
UniProt Q9BY42: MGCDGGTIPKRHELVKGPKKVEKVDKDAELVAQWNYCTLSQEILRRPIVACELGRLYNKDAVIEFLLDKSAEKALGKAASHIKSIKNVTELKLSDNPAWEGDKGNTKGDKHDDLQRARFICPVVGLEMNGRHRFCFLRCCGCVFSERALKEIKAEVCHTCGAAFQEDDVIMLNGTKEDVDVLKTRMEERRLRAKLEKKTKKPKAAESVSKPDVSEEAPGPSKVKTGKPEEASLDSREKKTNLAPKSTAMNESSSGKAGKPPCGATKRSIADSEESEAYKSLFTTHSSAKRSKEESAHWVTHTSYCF
UniProt A2RRP1: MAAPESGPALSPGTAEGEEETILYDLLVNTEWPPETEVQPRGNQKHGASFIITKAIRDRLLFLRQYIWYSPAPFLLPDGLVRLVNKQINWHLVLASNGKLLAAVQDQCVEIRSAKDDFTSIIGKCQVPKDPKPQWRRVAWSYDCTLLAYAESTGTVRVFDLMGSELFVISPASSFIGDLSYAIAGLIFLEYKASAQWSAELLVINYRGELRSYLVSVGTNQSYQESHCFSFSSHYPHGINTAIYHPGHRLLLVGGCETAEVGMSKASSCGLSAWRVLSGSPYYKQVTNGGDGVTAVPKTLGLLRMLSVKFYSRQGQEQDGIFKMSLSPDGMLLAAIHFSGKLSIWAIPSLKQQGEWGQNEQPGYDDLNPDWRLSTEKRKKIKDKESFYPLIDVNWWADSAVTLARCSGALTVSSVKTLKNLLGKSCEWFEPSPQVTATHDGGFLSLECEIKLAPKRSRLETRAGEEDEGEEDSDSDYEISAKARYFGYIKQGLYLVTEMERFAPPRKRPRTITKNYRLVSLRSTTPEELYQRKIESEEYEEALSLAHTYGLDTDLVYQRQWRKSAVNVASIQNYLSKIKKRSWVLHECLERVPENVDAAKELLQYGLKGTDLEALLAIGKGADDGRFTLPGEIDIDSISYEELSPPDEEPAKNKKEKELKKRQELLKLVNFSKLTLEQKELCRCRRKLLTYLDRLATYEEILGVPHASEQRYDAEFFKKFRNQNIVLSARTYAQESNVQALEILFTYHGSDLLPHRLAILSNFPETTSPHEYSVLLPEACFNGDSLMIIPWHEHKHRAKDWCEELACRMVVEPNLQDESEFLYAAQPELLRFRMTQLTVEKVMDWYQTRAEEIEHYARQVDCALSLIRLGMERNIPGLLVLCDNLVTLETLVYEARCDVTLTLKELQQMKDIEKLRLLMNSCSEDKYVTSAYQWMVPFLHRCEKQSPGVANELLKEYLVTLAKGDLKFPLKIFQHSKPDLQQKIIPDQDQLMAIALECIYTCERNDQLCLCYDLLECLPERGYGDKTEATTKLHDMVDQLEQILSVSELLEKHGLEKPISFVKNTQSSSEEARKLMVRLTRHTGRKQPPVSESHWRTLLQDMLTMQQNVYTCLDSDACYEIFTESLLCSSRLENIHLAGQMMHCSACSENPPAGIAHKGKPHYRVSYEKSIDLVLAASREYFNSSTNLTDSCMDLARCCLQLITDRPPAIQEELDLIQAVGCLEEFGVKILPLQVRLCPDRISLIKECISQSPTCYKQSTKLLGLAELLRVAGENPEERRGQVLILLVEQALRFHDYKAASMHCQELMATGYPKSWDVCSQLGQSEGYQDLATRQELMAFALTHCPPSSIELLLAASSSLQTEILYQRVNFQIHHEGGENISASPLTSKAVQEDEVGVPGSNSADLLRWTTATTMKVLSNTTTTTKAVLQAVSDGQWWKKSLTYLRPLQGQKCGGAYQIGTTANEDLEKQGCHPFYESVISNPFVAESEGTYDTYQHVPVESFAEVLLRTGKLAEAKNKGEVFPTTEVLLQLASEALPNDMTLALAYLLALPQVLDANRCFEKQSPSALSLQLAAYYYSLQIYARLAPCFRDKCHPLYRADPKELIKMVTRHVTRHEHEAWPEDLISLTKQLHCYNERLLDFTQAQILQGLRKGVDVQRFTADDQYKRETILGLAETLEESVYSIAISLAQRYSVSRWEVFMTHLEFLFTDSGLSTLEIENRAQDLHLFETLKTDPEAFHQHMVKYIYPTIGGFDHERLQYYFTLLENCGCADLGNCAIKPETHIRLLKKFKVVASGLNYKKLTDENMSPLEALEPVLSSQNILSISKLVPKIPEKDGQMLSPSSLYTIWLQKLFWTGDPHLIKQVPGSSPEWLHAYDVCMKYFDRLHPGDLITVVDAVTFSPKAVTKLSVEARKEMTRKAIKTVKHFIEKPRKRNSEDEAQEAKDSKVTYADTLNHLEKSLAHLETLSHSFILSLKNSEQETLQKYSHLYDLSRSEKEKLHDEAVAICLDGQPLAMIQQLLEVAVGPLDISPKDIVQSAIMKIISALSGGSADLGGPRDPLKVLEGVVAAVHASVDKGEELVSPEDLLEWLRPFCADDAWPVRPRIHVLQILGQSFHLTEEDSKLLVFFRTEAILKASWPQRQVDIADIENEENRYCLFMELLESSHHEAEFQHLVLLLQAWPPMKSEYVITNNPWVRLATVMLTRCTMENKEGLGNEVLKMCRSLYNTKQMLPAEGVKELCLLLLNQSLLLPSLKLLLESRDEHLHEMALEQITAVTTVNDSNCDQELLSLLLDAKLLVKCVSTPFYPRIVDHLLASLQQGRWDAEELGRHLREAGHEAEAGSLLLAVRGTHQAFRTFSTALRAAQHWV

Compound in the experiment: Nc1nc2c(ncn2[C@@H]2O[C@H](COP(=O)(O)OP(=O)(O)OP(=O)(O)O)[C@@H](O)[C@H]2O)c(=O)[nH]1 [guanosine triphosphate]
Nature of the experiment: NP40-soluble protein abundance relative to vehicle (solubility fold change) (ratio); higher = more soluble protein in presence of GTP. The procedure, abridged:
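Across three independent experiments, values are fold changes against the detergent-processed vehicle for each replicate, based on vsn-normalised intensities. The samples were Jurkat crude lysate treated with eight concentrations (0.1 to 10 mM) for 10 min at room temperature and then 3 min at 37 °C. Lysate was solubilised with 0.8% NP40 and benzonase, ultracentrifuged, and the supernatant analysed by TMT-labelled LC-MS/MS.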

± gives the standard deviation of the averaged measurements. The list shows a part of the results.

A0A0J9YYD9: the NP40-soluble protein abundance by setting is: (concentration: 0.1mM) 1.03 ± 0.14; (concentration: 0.5mM) 0.941 ± 0.086; (concentration: 1mM) 1.1 ± 0.17; (concentration: 2mM) 1.13 ± 0.23; (concentration: 4mM) 1.18 ± 0.027; (concentration: 6mM) 1.144 ± 0.0065. Further, the NP40-soluble protein abundance runs as follows: (concentration: 8mM) 1.25 ± 0.17; (concentration: 10mM) 1.31 ± 0.23.

As for “A0A0G2JIR1|A0A0G2JIS2|A0A0G2JK64|A2ABF8 and related entries (UniProt Q96KQ7)”, the NP40-soluble protein abundance reads like this: (concentration: 0.1mM) 1.19 ± 0.16; (concentration: 0.5mM) 1.08 ± 0.12; (concentration: 1mM) 1.17 ± 0.11; (concentration: 2mM) 1.15 ± 0.085; (concentration: 4mM) 1.26 ± 0.082; (concentration: 6mM) 1.027 ± 0.0025. In addition, the NP40-soluble protein abundance is 1.1 ± 0.052 (concentration: 8mM) and 1.18 ± 0.21 (concentration: 10mM).

With “A0A0A0MTP3|Q99550 and related entries (UniProt Q99550)”, the NP40-soluble protein abundance is, setting by setting: (concentration: 0.1mM) 1.15 ± 0.081; (concentration: 0.5mM) 1.04 ± 0.068; (concentration: 1mM) 1.03 ± 0.021; (concentration: 2mM) 1 ± 0.026; (concentration: 4mM) 0.942 ± 0.098; (concentration: 6mM) 0.863 ± 0.054. The NP40-soluble protein abundance (concentration: 8mM) was 0.882 ± 0.098 and the NP40-soluble protein abundance (concentration: 10mM) is 0.862 ± 0.067.

For the target “A0A0C4DGV5|O95218 and related entries (UniProt O95218)”, the NP40-soluble protein abundance (concentration: 0.1mM) came out at 0.89 ± 0.067; the NP40-soluble protein abundance (concentration: 0.5mM) amounted to 0.905 ± 0.072; the NP40-soluble protein abundance (concentration: 1mM) is 0.943 ± 0.059; the NP40-soluble protein abundance (concentration: 2mM) came to 0.882 ± 0.091; the NP40-soluble protein abundance (concentration: 4mM) was determined as 0.854 ± 0.073; the NP40-soluble protein abundance (concentration: 6mM) turned out to be 0.865 ± 0.076. The NP40-soluble protein abundance (concentration: 8mM) stood at 0.865 ± 0.047 and the NP40-soluble protein abundance (concentration: 10mM) stood at 0.902 ± 0.09.

For “A0A087WYN2|J3KSS7 and related entries (UniProt Q9NZ52)”, the NP40-soluble protein abundance by setting is: (concentration: 0.1mM) 0.909 ± 0.037; (concentration: 0.5mM) 0.905 ± 0.087; (concentration: 1mM) 0.957 ± 0.09; (concentration: 2mM) 0.915 ± 0.13; (concentration: 4mM) 0.92 ± 0.14; (concentration: 6mM) 0.94 ± 0.16. In addition, the NP40-soluble protein abundance turned out to be 0.921 ± 0.08 (concentration: 8mM) and 0.896 ± 0.057 (concentration: 10mM).

Regarding “A0A087X1A8|D3VVH9 and related entries (UniProt P54252)”, the NP40-soluble protein abundance (concentration: 0.1mM) came out at 0.899 ± 0.03; the NP40-soluble protein abundance (concentration: 0.5mM) stood at 0.869 ± 0.091; the NP40-soluble protein abundance (concentration: 1mM) is 0.948 ± 0.069; the NP40-soluble protein abundance (concentration: 2mM) turned out to be 0.898 ± 0.13; the NP40-soluble protein abundance (concentration: 4mM) turned out to be 0.859 ± 0.076; the NP40-soluble protein abundance (concentration: 6mM) was 0.885 ± 0.12. Moreover, the NP40-soluble protein abundance by setting is: (concentration: 8mM) 0.862 ± 0.087; (concentration: 10mM) 0.896 ± 0.077.

Consider A0A0A0MQR2|Q9BY42 (UniProt Q9BY42), for which the NP40-soluble protein abundance by setting is: (concentration: 0.1mM) 1 ± 0.038; (concentration: 0.5mM) 1 ± 0.032; (concentration: 1mM) 0.985 ± 0.076; (concentration: 2mM) 0.942 ± 0.1; (concentration: 4mM) 0.944 ± 0.1; (concentration: 6mM) 0.947 ± 0.086. The NP40-soluble protein abundance by setting is: (concentration: 8mM) 0.962 ± 0.072; (concentration: 10mM) 0.937 ± 0.088.

On to A0A087X2I1|P62333 (UniProt P62333), for which the NP40-soluble protein abundance (concentration: 0.1mM) stood at 1.03 ± 0.051; the NP40-soluble protein abundance (concentration: 0.5mM) worked out at 1.06 ± 0.099; the NP40-soluble protein abundance (concentration: 1mM) was 1 ± 0.11; the NP40-soluble protein abundance (concentration: 2mM) came out at 1.05 ± 0.15; the NP40-soluble protein abundance (concentration: 4mM) was 1.04 ± 0.12; the NP40-soluble protein abundance (concentration: 6mM) was 1.04 ± 0.16. Further, the NP40-soluble protein abundance was 1.05 ± 0.15 (concentration: 8mM) and 0.992 ± 0.16 (concentration: 10mM).

For the target UniProt A2RRP1, the NP40-soluble protein abundance came to 1.08 ± 0.046 (concentration: 0.1mM); 1.1 ± 0.14 (concentration: 0.5mM); 1.01 ± 0.087 (concentration: 1mM); 1.05 ± 0.14 (concentration: 2mM); 1.06 ± 0.1 (concentration: 4mM); 1.05 ± 0.13 (concentration: 6mM). The NP40-soluble protein abundance is, setting by setting: (concentration: 8mM) 1.01 ± 0.079; (concentration: 10mM) 0.979 ± 0.11.

As to “A0A0A0MSZ4|A0A0A0MT64|A0A0A0MTR6|A0A0C4DFN8|J3QQX3 and related entries (UniProt P22570)”, the NP40-soluble protein abundance reads like this: (concentration: 0.1mM) 1.05 ± 0.027; (concentration: 0.5mM) 1.01 ± 0.031; (concentration: 1mM) 1.01 ± 0.057; (concentration: 2mM) 0.974 ± 0.049; (concentration: 4mM) 1.01 ± 0.1; (concentration: 6mM) 0.992 ± 0.082. Also, the NP40-soluble protein abundance turned out to be 0.995 ± 0.081 (concentration: 8mM) and 0.916 ± 0.097 (concentration: 10mM).

For the target “A0A0B4J2C2|Q9Y2H0 and related entries (UniProt Q9Y2H0)”, the NP40-soluble protein abundance reads like this: (concentration: 0.1mM) 1.03 ± 0.099; (concentration: 0.5mM) 1.07 ± 0.18; (concentration: 1mM) 1.13 ± 0.087; (concentration: 2mM) 1.09 ± 0.12; (concentration: 4mM) 0.984 ± 0.094; (concentration: 6mM) 1.01 ± 0.25. The NP40-soluble protein abundance runs as follows: (concentration: 8mM) 1.04 ± 0.093; (concentration: 10mM) 1.12 ± 0.18.

As for “A2RUF3 and related entries (UniProt O75044)”, the NP40-soluble protein abundance by setting is: (concentration: 0.1mM) 1.05 ± 0.029; (concentration: 0.5mM) 1.07 ± 0.017; (concentration: 1mM) 1.04 ± 0.047; (concentration: 2mM) 1.03 ± 0.027; (concentration: 4mM) 0.992 ± 0.081; (concentration: 6mM) 1.02 ± 0.045. Further, the NP40-soluble protein abundance turned out to be 1 ± 0.08 (concentration: 8mM) and 0.998 ± 0.036 (concentration: 10mM).
